Experimental data taken from US20200277397A1.
No constants are given. Whether binding was seen depends on the method and setting.

Sequences of proteins named here, by UniProt entry; tags and fusion partners are left off. A change or cut given only in a name is not applied to a line headed by its entry.
UniProt Q13641: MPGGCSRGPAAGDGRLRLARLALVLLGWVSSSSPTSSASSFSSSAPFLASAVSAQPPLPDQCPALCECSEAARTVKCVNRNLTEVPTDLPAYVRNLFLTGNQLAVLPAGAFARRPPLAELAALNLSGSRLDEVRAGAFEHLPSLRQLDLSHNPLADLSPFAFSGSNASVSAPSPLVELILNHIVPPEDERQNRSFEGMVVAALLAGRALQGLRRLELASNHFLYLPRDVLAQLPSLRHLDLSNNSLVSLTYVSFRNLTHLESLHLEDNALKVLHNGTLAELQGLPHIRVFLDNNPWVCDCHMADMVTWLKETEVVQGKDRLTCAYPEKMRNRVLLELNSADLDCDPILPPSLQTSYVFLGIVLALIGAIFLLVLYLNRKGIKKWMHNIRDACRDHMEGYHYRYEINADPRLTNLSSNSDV
UniProt Q4R8Y9: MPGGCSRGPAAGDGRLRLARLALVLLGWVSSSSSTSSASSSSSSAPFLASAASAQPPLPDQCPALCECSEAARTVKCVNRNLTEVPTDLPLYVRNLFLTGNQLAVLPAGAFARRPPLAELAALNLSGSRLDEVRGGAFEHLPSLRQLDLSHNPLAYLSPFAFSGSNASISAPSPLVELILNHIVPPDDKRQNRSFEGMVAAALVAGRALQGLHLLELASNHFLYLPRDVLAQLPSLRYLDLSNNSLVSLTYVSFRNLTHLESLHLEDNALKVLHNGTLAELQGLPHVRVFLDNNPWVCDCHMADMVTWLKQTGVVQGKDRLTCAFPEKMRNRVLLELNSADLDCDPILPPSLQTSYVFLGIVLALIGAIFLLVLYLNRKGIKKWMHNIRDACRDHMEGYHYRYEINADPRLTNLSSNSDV

Legend:
[1] = target: full length human 5T4 (human) (UniProt Q13641); experiment: flow cytometry, HeLa and MDA-MB-231 cells
[2] = target: full length cynomolgus monkey 5T4 (cynomolgus monkey) (UniProt Q4R8Y9); experiment: flow cytometry, HEK-293 transfected with cynomolgus monkey 5T4
[3] = target: full length human 5T4 (human) (UniProt Q13641); experiment: flow cytometry, HEK-293 transfected with human 5T4
[4] = target: full length human 5T4 (human) (UniProt Q13641); experiment: flow cytometry, MDA-MB-231 cells (right panel), FITC anti-human IgG F(ab')2, MFI FITC
[5] = target: full length human 5T4 (human) (UniProt Q13641); experiment: flow cytometry, HEK-293 cells transfected with full length human 5T4, PE anti-human IgG F(ab')2, MFI PE
[6] = target: full length human 5T4 (human) (UniProt Q13641); experiment: flow cytometry, HeLa cells (left panel), FITC anti-human IgG F(ab')2, MFI FITC
[7] = target: full length human 5T4 (human) (UniProt Q13641); experiment: flow cytometry, HEK-293 transfected with human 5T4; remark: listed apart in the source
[8] = target: full length human 5T4 (human) (UniProt Q13641); experiment: flow cytometry, HEK-293 cells transfected with full length human 5T4 (left panel), FITC anti-human IgG F(ab')2, MFI FITC
[9] = target: T1, full length chicken 5T4 (chicken); experiment: flow cytometry, HEK-293 transfected with chicken 5T4
T1 sequence: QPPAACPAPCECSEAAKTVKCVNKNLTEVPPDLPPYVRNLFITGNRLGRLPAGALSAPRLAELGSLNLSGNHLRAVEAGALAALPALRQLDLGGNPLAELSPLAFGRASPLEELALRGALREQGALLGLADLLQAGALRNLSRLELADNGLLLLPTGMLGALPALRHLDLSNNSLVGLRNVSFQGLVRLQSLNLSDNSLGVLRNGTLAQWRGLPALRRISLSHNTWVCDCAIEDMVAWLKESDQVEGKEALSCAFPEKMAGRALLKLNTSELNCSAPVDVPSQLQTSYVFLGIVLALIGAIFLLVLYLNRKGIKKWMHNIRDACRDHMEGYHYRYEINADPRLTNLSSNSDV

[10] = target: T1, full length chicken 5T4 (chicken); experiment: flow cytometry, HEK-293 cells transfected with full length chicken 5T4, PE anti-human IgG F(ab')2, MFI PE
[11] = target: full length cynomolgus monkey 5T4 (cynomolgus monkey) (UniProt Q4R8Y9); experiment: flow cytometry, HEK-293 cells transfected with full length cynomolgus monkey 5T4 (right panel), FITC anti-human IgG F(ab')2, MFI FITC

- binding [1]: no binding (tested: 3 µg/mL)
- binding [2]: no binding (tested: 3 µg/mL)
- binding [3]: no binding (tested: 3 µg/mL)
- binding [4]: no binding (tested: 3 µg/ml)
- binding [5]: no binding (tested: 10 µg/ml)
- binding [6]: no binding (tested: 3 µg/ml)
- binding [7]: no binding (tested: 10 µg/mL)
- binding [8]: no binding (tested: 3 µg/ml)
- binding [9]: no binding (tested: 10 µg/mL)
- binding [10]: no binding (tested: 10 µg/ml)
- binding [11]: no binding (tested: 3 µg/ml)
B1: IgG1-b12-K409R (antibody, V domains shown)
VH: QVQLVQSGAEVKKPGASVKVSCQASGYRFSNFVIHWVRQAPGQRFEWMGWINPYNGNKEFSAKFQDRVTFTADTSANTAYMELRSLRSADTAVYYCARVGPYSWDDSPQDNYYMDVWGKGTTVIVSS
VL: EIVLTQSPGTLSLSPGERATFSCRSSHSIRSRRVAWYQHKPGQAPRLVIHGVSNRASGISDRFSGSGSGTDFTLTITRVEPEDFALYYCQVYGASSYTFGQGTKLERK
